The record followed here is paper PMC11758954.

Chains of the proteins cited; added tags and fusions are not shown. Chains listed by the source or under a name are the forms on record and can include a tag or linker.
FXRα1 + mouse RXRα, one chain, as listed by the source: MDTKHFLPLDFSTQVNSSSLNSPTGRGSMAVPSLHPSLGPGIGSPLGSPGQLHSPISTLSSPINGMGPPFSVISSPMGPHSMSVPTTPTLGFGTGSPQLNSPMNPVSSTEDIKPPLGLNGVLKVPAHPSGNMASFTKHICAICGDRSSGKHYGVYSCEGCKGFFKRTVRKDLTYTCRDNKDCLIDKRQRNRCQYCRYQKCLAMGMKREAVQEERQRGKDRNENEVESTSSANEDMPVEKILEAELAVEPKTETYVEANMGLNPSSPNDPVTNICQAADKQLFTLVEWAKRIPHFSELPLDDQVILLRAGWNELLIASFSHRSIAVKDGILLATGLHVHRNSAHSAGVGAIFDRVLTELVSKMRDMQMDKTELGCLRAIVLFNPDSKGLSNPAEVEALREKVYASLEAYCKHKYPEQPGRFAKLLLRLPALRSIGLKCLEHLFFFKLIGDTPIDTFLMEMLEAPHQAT

Assay in all cases: EMSA
One data set deals with FXRα1 + mouse RXRα. The note with it: HeLa nuclear extract, RXRα co-expressed, band stronger than FXRα1 alone; 5 µg nuclear extract, 1 µg poly(dI-dC), EMSA buffer (composition not given), 30 min at 4 °C; 6% native PAGE in 0.5x TBE pH 8.3; protein in a lysate after overexpression; protein details: Flag and HA epitopes (pcDNA3.2); label: 32P. On the technique in general: Mobility shift assays separate free from complexed probe on a gel.

In data set [1] the test system is T1, FXRαse5 (exon 5-skipped FXRα) (Homo sapiens).
T1 sequence (looked up, limits assumed): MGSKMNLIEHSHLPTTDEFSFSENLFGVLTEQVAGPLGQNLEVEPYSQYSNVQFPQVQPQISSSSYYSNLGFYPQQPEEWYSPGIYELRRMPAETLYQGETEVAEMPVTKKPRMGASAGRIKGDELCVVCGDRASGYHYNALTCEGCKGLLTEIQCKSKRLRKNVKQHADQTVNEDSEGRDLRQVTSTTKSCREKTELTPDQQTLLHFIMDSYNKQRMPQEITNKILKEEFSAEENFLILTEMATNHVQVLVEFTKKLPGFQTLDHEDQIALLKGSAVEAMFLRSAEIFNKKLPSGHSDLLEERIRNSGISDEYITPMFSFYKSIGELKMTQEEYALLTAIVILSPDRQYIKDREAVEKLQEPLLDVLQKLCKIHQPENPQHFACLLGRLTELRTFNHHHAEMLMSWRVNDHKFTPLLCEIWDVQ
The note with it: 5 µg nuclear extract, 1 µg poly(dI-dC), EMSA buffer (composition not given), 30 min at 4 °C, 6% native PAGE in 0.5x TBE pH 8.3, protein in a lysate after overexpression, protein details: Flag and HA epitopes (pcDNA3.2), label: 32P.

The test system of data set [2] is FXRαse5 (exon 5-skipped FXRα) + mouse RXRα. The note with it: HeLa nuclear extract, RXRα co-expressed; 5 µg nuclear extract, 1 µg poly(dI-dC), EMSA buffer (composition not given), 30 min at 4 °C; 6% native PAGE in 0.5x TBE pH 8.3; protein in a lysate after overexpression; protein details: Flag and HA epitopes (pcDNA3.2); label: 32P.

For at least one entry, the source does not settle the construct or the ends of the probe. Where cells or extracts were used, other partners may take part. For some assays here: No signal at the amounts used counts as a negative. For some assays here: Tags and fusion partners may be left off the protein sequences shown.

As for “GATGGGCCAAGGTCAATGACCTCGGGG (double strand) [IR-1 consensus FXRE]”, the binding result with FXRα1 + mouse RXRα is “binds”; in data set [1] (HeLa nuclear extract, no co-transfected RXRα) it was “no binding”; in data set [1] (HepG2 nuclear extract, increasing FXRαse5 plasmid did not enhance or change the endogenous FXRα complex), “no binding”; in data set [1] (cytoplasmic extract of HeLa), “no binding”; in data set [2], “no binding”.
